# Results: publication PMC12368660 (ACS Omega, 2025)
# Plain letter strings leave the end groups untold.
# Experiment: peptide made by a vendor (Fmoc solid-phase peptide synthesis)
# Conditions: whole synthesis, 220 nm, TFA salts
row,Sequence,final HPLC purity
1,RWRWPRWRW,96.2%
2,RWRWPRWRWPRWRW,95.2%
3,RWRWRWPRWRWRW,96.7%
4,RWRWRWRWRWRW,96.9%
5,RWRWRWRWPRWRWRWRW,96.2%
6,RWRWRWRW,98.4%
7,RWRWRWRWRWRWRWRW,95.8%
